According to article PMC7819943, “Rice protein-binding microarrays: a tool to detect cis-acting elements near promoter regions in rice”:
The other results are listed elsewhere or left out.

Amino acid sequences for entries named in this document (tags omitted).
UniProt Q0JBA9, entry or part of it: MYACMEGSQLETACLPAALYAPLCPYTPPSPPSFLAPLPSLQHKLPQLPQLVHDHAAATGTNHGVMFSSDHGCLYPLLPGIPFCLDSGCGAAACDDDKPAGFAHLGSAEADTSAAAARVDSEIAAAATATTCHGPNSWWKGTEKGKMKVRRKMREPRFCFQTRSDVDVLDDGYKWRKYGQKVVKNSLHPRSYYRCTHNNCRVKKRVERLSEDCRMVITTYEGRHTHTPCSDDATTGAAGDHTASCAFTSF

molecular target: OsWRKY34 (Oryza sativa, UniProt Q0JBA9 1-250); experiment: protein-binding microarray (RPBM); PBS, 2% BSA, 51.3 ng/ul salmon testes DNA, 50 uM zinc acetate, 200 nM TF, 25 C, 1 h; high values mean tight binding; conditions: protein: recombinant; tags: N-terminal polyhistidine and DsRed monomer fusion (pET32a); label: CyDye5-dUTP incorporated in the synthesized complementary strand; 3' TTTTT single-stranded linker to array surface; dsDNA, one strand shown
In short: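 A custom Agilent array was converted to double-stranded form by primer extension with Cy5-dUTP and blocked with 2% BSA. Protein at 200 nM in PBS with 2% BSA, salmon testes DNA and 50 µM zinc acetate was applied for 1 h at 25 °C, followed by washing. The proteins were polyhistidine–DsRed N-terminal fusions of transcription factors, expressed in E. coli BL21-CodonPlus and Ni–NTA-purified. The binding signal is per-feature fluorescence intensity (arbitrary units) from an Axon 4000B scanner.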

Sequence	binding signal
GGACGTAGCCGTCGTCCTAGTCACTCACTCACTCATCACGCGGAGTCACCTAGTGCAG	8780 fluorescence intensity (a.u.)
GACCCATGCTTTACTTCTTAAATCATATAGACTTATATAACGGAGTCACCTAGTGCAG	9360 fluorescence intensity (a.u.)
GGAAGGAGCGGGTGTGGGATGGGATCTGAGAGGGTGAGGACGGAGTCACCTAGTGCAG	12100 fluorescence intensity (a.u.)
TCTTTCCGTTGACTCTCGCGATTCCAAACACGATGGCTTGCGGAGTCACCTAGTGCAG	11000 fluorescence intensity (a.u.)
TATATCCTATCTCTCACTTCACTCATATAGTGGTTAACTCCGGAGTCACCTAGTGCAG	9570 fluorescence intensity (a.u.)
AGTTATCTGATTTGCCCTTGTATTGGTTTGTATCACGTCGCGGAGTCACCTAGTGCAG	13400 fluorescence intensity (a.u.)
GGCAGGCAGGGGAACGCAAGGCATATCGTCGTCAATTCGTCGGAGTCACCTAGTGCAG	8750 fluorescence intensity (a.u.)
TCGCCTTCACGGGCTCCCGTTGCCGTCTCGCGTCGTGCCCCGGAGTCACCTAGTGCAG	8180 fluorescence intensity (a.u.)
TCTCTTTCCTTCTTTCCCCTTCCCGTTGACTTCACCGGGACGGAGTCACCTAGTGCAG	9490 fluorescence intensity (a.u.)
CAAACGTTCGATACGGATATCCACGGCTGCACTTATTTTGCGGAGTCACCTAGTGCAG	8120 fluorescence intensity (a.u.)
GCCCGTACAGCCAACTCCACACCGCGTTCTGCAGCCACGTCGGAGTCACCTAGTGCAG	8800 fluorescence intensity (a.u.)
AGTCAAGAACTGCGACTGTTTTGTCTGCATCGAATTCTTTCGGAGTCACCTAGTGCAG	8030 fluorescence intensity (a.u.)
TCCCCGAGCCCCGCGTCCTGCGCCACCGCCGCCCCGGCGACGGAGTCACCTAGTGCAG	9520 fluorescence intensity (a.u.)
ATTTTTTCATGTGTGTGTGTGGAGTATTAAATTTGAAAGTCGGAGTCACCTAGTGCAG	8750 fluorescence intensity (a.u.)
TGAGCCTCAATCTTCTTGTTGGGCCGATACTTTCTCTATTCGGAGTCACCTAGTGCAG	8340 fluorescence intensity (a.u.)
ATTAGCAATTTAGCTGCTCTTCTTGTTTTTTTTTCCTTAACGGAGTCACCTAGTGCAG	9790 fluorescence intensity (a.u.)
GTCACATCAGTTTGGTATATGTAGAAGTGTAGTAAGAATCCGGAGTCACCTAGTGCAG	8610 fluorescence intensity (a.u.)
AAGGGGAAGAGTGGAGGGAGTGGGAAGGGCGGCGACCGGCCGGAGTCACCTAGTGCAG	8570 fluorescence intensity (a.u.)
TTTGTCATCAACTTTTTTGCATTTTGGTTGTGTCTTGTTCCGGAGTCACCTAGTGCAG	8120 fluorescence intensity (a.u.)
GTGGTGCTTCATGCCTATCACTGCCCACGAAGACCAAGCCCGGAGTCACCTAGTGCAG	8040 fluorescence intensity (a.u.)
CTCGAGCGCCGACTTCTCCGGGACGAAGTCCATGCGGCGCCGGAGTCACCTAGTGCAG	9020 fluorescence intensity (a.u.)

Sequence	binding signal
CGACCGCGCCACACGCATCCCCACGCCACCCTAACCACACCGGAGTCACCTAGTGCAG	8620 fluorescence intensity (a.u.)
GCCACCACGCTACGCTACACCACTTCACTTCACGCATCCGCGGAGTCACCTAGTGCAG	10200 fluorescence intensity (a.u.)
AGAAATTAATTTCTCTCGGTATTTTCTTCTTTCTTCTCTCCGGAGTCACCTAGTGCAG	9170 fluorescence intensity (a.u.)
GTTAGTTATCTTGGACATCTCCCTCCTAGACCTCATTTCGCGGAGTCACCTAGTGCAG	9700 fluorescence intensity (a.u.)
GAACGCGTAAGTGGAGTCAAACATTTCCTTTCCGCCAGACCGGAGTCACCTAGTGCAG	8070 fluorescence intensity (a.u.)
ATAGTGGTATATGTGCGTATGATTGTTTCGTGTTTAAGAACGGAGTCACCTAGTGCAG	10600 fluorescence intensity (a.u.)
ATATATTGTACTCCTCTATGTTCTATCTATTATATGCAATCGGAGTCACCTAGTGCAG	10700 fluorescence intensity (a.u.)
TCTTTTTTTTTCGCCGGTTTTTATGGTTGTTTTCTTCGGTCGGAGTCACCTAGTGCAG	11600 fluorescence intensity (a.u.)
TTCCTTTTTTTATGCAACTTTGACAAGCCTAATAGATATACGGAGTCACCTAGTGCAG	8500 fluorescence intensity (a.u.)
AATTCTTTCTCCATTTCTTGAACCGAACTACTCCAGTCTACGGAGTCACCTAGTGCAG	8600 fluorescence intensity (a.u.)
CGCCTCGCCGTCCCCACCCATAGCCGATCCTGTGCCACTCCGGAGTCACCTAGTGCAG	8100 fluorescence intensity (a.u.)
CTACTCCCTTCGTTTCAGGTTATAAGACGTTTTGACTTTGCGGAGTCACCTAGTGCAG	9610 fluorescence intensity (a.u.)
GACGTAGTCGTGCGCTCATCATCTCGCTTACGCTCTCACGCGGAGTCACCTAGTGCAG	10900 fluorescence intensity (a.u.)
TCTGACAGATATATCCATCAATCAGTCCCGTCCGTGCCCGCGGAGTCACCTAGTGCAG	8500 fluorescence intensity (a.u.)
GTTGTTCCTTTTTTTTGGGCACAGTTAAGCATGGCCAAGACGGAGTCACCTAGTGCAG	9550 fluorescence intensity (a.u.)
CACCACCGTCTCCACCACCACCTCCGGCCCACCTCCTCCTCGGAGTCACCTAGTGCAG	8220 fluorescence intensity (a.u.)
CCCATCCATAATCTTGGAGTAATTCGCGAGACGAATCTATCGGAGTCACCTAGTGCAG	8110 fluorescence intensity (a.u.)
TATTTTTTTATATTTAATTCATTTTATATGTGCCTTTGAACGGAGTCACCTAGTGCAG	8130 fluorescence intensity (a.u.)
CCGGTCCGCCGCCATCCCGCCGTCTCTCTCCCCACCACCGCGGAGTCACCTAGTGCAG	9340 fluorescence intensity (a.u.)
TTACATTGCTAATTCTTATTTCACTGGCCTTAATATATAACGGAGTCACCTAGTGCAG	10100 fluorescence intensity (a.u.)
GTAGTTTTTTTCCTAGTTTCAGTTTTTGTTTTGCTTTTTTCGGAGTCACCTAGTGCAG	11200 fluorescence intensity (a.u.)

Reprinted at random: 2 entries already listed.
Sequence	binding signal
GTTGTTCCTTTTTTTTGGGCACAGTTAAGCATGGCCAAGACGGAGTCACCTAGTGCAG	9550 fluorescence intensity (a.u.)
GACGTAGTCGTGCGCTCATCATCTCGCTTACGCTCTCACGCGGAGTCACCTAGTGCAG	10900 fluorescence intensity (a.u.)
